The data set is described as follows: Release of 5-FU from FG clots.

For `O=c1[nH]cc(F)c(=O)[nH]1` [5-FU, 5-fluorouracil], the “sustained delivery longer than with the drug in aqueous form” value is given as “at least 10 times”. The “time point of peak levels” value (all cases) stood at 5 h. Under “greater amounts of solid 5-FU”, the “increase of total duration of delivery, solid vs liquid form” value is “tripling”. Besides, the “increase in the duration of delivery of a given concentration” value (greater amounts of solid 5-FU vs liquid form) stood at 10 fold.

The values above are taken from patent USRE39192E1, “Supplemented and unsupplemented tissue sealants, methods of their production and use” (American National Red Cross, priority 1990, dated 2006).
